Three molecules from article PMC3415457, “Cohesin Rings Devoid of Scc3 and Pds5 Maintain Their Stable Association with the DNA” (PLoS Genetics, 2012) can be followed below.

Results are given in words; binding and its absence hold for the method and conditions named. Binding seen in cells or lysates may run through a third protein. Some entries that bind do so weakly or less than the wild type. Sequences can lack the tags named with a protein.

In assay [1] the target is T1, Smc3-TAP (S. cerevisiae (budding yeast)) (UniProt P47037).
T1 sequence: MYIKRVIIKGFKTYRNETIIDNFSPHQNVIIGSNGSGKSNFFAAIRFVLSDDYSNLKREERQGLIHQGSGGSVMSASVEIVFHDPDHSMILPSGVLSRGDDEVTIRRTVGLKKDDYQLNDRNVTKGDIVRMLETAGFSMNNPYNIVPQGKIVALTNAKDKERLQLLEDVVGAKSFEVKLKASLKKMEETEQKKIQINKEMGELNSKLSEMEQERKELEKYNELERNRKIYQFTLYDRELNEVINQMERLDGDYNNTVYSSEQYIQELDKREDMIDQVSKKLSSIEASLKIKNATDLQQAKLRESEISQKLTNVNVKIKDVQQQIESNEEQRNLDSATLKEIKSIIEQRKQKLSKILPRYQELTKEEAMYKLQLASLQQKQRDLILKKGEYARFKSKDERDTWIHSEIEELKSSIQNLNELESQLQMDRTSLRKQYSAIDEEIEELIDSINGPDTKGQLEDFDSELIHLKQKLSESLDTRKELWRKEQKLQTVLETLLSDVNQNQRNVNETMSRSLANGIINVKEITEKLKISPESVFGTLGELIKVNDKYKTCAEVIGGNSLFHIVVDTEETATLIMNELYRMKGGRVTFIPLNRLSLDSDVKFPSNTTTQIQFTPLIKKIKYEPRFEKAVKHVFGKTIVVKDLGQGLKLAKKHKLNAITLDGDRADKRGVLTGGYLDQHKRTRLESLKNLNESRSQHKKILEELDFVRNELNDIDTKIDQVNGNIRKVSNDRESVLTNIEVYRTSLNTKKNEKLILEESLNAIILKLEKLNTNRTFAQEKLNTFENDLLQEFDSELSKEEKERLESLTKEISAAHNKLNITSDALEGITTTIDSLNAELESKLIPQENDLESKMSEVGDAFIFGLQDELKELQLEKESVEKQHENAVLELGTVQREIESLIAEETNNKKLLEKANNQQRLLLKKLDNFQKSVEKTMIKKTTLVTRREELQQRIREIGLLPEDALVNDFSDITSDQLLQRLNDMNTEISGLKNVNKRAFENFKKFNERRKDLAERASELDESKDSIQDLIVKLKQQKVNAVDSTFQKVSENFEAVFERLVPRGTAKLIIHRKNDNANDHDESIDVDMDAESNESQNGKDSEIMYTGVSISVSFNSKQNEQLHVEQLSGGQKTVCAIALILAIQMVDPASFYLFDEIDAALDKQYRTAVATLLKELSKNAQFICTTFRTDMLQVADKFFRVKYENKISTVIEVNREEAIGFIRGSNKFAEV
The assay can be described thus: co-IP; lysates of nocodazole/benomyl arrested yeast on IgG Sepharose to precipitate Scc1-TAP or Smc3-TAP; washes up to buffer I/150 mM potassium acetate; blot with anti-MYC; Scc3 tested in PDS5-degron strains, Pds5 in SCC3-degron strains.

Assay [2] concerns the target T2, Scc1-TAP (S. cerevisiae (budding yeast)) (UniProt Q12158).
T2 sequence: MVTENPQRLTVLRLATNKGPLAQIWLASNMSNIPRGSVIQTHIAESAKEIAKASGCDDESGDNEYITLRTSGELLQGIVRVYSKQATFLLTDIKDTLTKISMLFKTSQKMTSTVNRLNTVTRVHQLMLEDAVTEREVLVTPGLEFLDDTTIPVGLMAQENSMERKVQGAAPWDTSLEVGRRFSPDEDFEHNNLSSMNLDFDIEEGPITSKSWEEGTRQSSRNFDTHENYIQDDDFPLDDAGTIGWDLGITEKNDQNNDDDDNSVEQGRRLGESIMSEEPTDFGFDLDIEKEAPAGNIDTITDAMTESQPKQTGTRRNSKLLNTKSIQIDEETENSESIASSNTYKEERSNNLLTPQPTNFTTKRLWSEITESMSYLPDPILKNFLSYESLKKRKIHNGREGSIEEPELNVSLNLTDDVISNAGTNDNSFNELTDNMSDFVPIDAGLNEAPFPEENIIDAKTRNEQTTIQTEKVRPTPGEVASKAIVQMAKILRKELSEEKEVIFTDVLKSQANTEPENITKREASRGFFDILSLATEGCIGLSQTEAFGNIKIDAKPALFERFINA
The assay is described as above.

Assay [3] concerns the target T1, Smc3-TAP (S. cerevisiae (budding yeast)). The assay is described as follows: co-IP; as for Wpl1 in the wild type (higher salt washes omitted), but PDS5-HA6-degron strains depleted of Pds5.
The target in assay [4] is T2, Scc1-TAP (S. cerevisiae (budding yeast)). The description is as above.
The target in assay [5] is T1, Smc3-TAP (S. cerevisiae (budding yeast)). The assay can be described thus: co-IP; lysates of nocodazole/benomyl arrested yeast on IgG Sepharose to precipitate Scc1-TAP or Smc3-TAP; higher salt washes omitted (three times buffer I, two times buffer I/100 mM potassium acetate); blot with anti-MYC for Wpl1; wild type strains (less Wpl1 in SCC3-degron strains).
Assay [6] has as its target T2, Scc1-TAP (S. cerevisiae (budding yeast)). Described as above.

B1: Scc3-MYC18 (protein, UniProt P40541 1-1150)
chain: MTAVRRSTRIRTKSQVIEEDYDDEQNTSAQHVESDKITAKTQHEEEEEQDTGESEESSSEDDYEDQDDDDYVDTATAKRKSRKRKPKSASNTSSKRQKKKPTSAQKSAVSHAPAYHRSKKDQDQYLEIAKDFQPTELFDILSTSEDVSIEELLREWLETYSENRDKFLQEFINLLLNCCGSVARVEDHDVHSNESSNETIGEIQLLFQRQKLHEFYLLISKENKKRKNFKMGPLYQNFAEFMTKLLEVANDLQLLYVESDEDDTQIVTGNLVLDLLTWLSSFSVCKIRCFRYISTLTLYLFQDYLTQQAVNLEKNYLAKLSKQLSLEEKKKRPNNKTLEKLESTIAETQGSKVVIDSIIDNIVKLCFVHRYKDVSDLIRSESMLHLSIWIKNYPEYFLKVTFLKYFGWLLSDNSVSVRLQVTKILPHLIIQNHNSKSTDNSAIRQVFERFKTKILEVAIRDVNLDVRIHSIQVLTEASSLGYLDDSEILIISSLMFDEEFDPFKTSSFNKRSKFLSTVAKFLARVIKEKFDEFIKTHEDLPKEVDGLEVGPVVQVGIFIKILNDSLIYHLKDCAEVDSRTKIRMLTQAAEFLSPYISTHLKTICNLLISDTESNELIQKLQNSANNNSDDEDVDDEELDITPLFPIDRNSTILYLNVFHGLCAGANNPKIQTKDSVKEIVLPLFYDLLNAASIESADILCPLLESFITFSLDDWISIGYETELKKITDKTIKAFMDSTIGNSKVDMKYDIFAKFIHHIHHFEKKELQEKFLNQIATLKIHLKKFLQEKMDPNNSRDDYKDLTCSLYELYINKLTILGRDYPIEVDEELLQLFLNNFVSRIPIMFQDFDDSTAQEINFKMLVLLATWNLEKWREIIEKVRDYENSISKDLRSVWKPIAAIIGRLNTLVISLAATNETFENINSLFYLKWSACTSLMDIIVAIKIFELKLPADATTWRYSMSEQFPFYLHDNASKVLLKIFLYLESLFAKQVDVQLERVADEDANLNDLPETGFFENIETEFLLFTVKLKGLMKLNILDERFASRVALNKEKLGPLFKKIVDDTIMENPEPNKKNIQKAKSNQTQREKAPLQPNSERETDHANTENNDPDIPMTIDLEPIEESSQNNSELAPIEEHPTVVDAIDNSDEITQD
As for B1, the binding result in assay [1] and in assay [2] was “binds” throughout.

B2: Pds5-MYC18 (protein, UniProt Q04264 1-1277)
chain: MAKGAVTKLKFNSPIISTSDQLISTNELLDRLKALHEELASLDQDNTDLTGLDKYRDALVSRKLLKHKDVGIRAFTACCLSDILRLYAPDAPYTDAQLTDIFKLVLSQFEQLGDQENGYHIQQTYLITKLLEYRSIVLLADLPSSNNLLIELFHIFYDPNKSFPARLFNVIGGILGEVISEFDSVPLEVLRLIFNKFLTYNPNEIPEGLNVTSDCGYEVSLILCDTYSNRMSRHLTKYYSEIIHEATNDDNNSRLLTVVVKLHKLVLRLWETVPELINAVIGFIYHELSSENELFRKEATKLIGQILTSYSDLNFVSTHSDTFKAWISKIADISPDVRVEWTESIPQIIATREDISKELNQALAKTFIDSDPRVRRTSVMIFNKVPVTEIWKNITNKAIYTSLLHLAREKHKEVRELCINTMAKFYSNSLNEIERTYQNKEIWEIIDTIPSTLYNLYYINDLNINEQVDSVIFEYLLPFEPDNDKRVHRLLTVLSHFDKKAFTSFFAFNARQIKISFAISKYIDFSKFLNNQESMSSSQGPIVMNKYNQTLQWLASGLSDSTKAIDALETIKQFNDERIFYLLNACVTNDIPFLTFKNCYNELVSKLQTPGLFKKYNISTGASIMPRDIAKVIQILLFRASPIIYNVSNISVLLNLSNNSDAKQLDLKRRILDDISKVNPTLFKDQIRTLKTIIKDLDDPDAEKNDNLSLEEALKTLYKASKTLKDQVDFDDTFFFTKLYDFAVESKPEITKYATKLIALSPKAEETLKKIKIRILPLDLQKDKYFTSHIIVLMEIFKKFPHVLNDDSTDIISYLIKEVLLSNQVVGDSKKEIDWVEDSLLSDTKYSAIGNKVFTLKLFTNKLRSIAPDVPRDELAESFTEKTMKLFFYLIASGGELISEFNKEFYPTPSNYQTKLRCVAGIQVLKLARISNLNNFIKPSDIIKLINLVEDESLPVRKTFLEQLKDYVANELISIKFLPLVFFTAYEPDVELKTTTKIWINFTFGLKSFKKGTIFERALPRLIHAIAHHPDIVGGLDSEGDAYLNALTTAIDYLLFYFDSIAAQENFSLLYYLSERVKNYQDKLVEDEIDEEEGPQKEEAPKKHRPYGQKMYIIGELSQMILLNLKEKKNWQHSAYPGKLNLPSDLFKPFATVQEAQLSFKTYIPESLTEKIQNNIKAKIGRILHTSQTQRQRLQKRLLAHENNESQKKKKKVHHARSQADDEEGDGDRESDSDDDSYSPSNKNETKKGHENIVMKKLRVRKEVDYKDDEDDDIEMT
B2: the binding entry in assay [1] and in assay [2] was “binds” in each case.

B3: Wpl1-MYC18 (protein, UniProt Q99359 1-647)
chain: MRAYGKRGPVLRTPFRSNKGLPSSSDVEFSDDDVNSVIPDVSSTISSSIADHPIEGLLDEPRKAQDSSSSFDGANEKPSSQLDSKRNDQNVKIITSSDTSMAFMKDEKLSAFNFLDGSKASKRKRRRTYQKHDANITSSIEPDVQDEDSITMHNEFESIRKIYNDINEFILKLPRADDDILNKMLENEMKMDDSIENNSIRTSKDKKYGKFRTILINKNKENEIMGEEVDQKANTLSLNNADNSNAEKEGLTSTNHYNELKNMGDTIKYQDDIEFLLSNSKSNDNTTVPINEYFKKLLNLSLMIINDEEFFQYAKRYFKKEIIKLSFAQFRSDFPELILLQGYLLHKVSESQSDFPPSFDNFSIELSKDDGKIRTKKNKHIKKLSHLNFEDFLRKTQFKTGLYYSLSLWEMHGNLSLDIIKRISILASNKDLFSRHVKTFIPLLEKLITASEFCHMYIEQPEMFDSLISNLNNQFKDMLDDDSLIKILILLTNMEVHNYTLWKEADMIFQSSMNTILESIHPLTDAKVDNILLHLGLCLNICSRENSRLKLDGKLWYDMKTIFVKMIRDGSDTENRLVQGLFYLNFSFLIKQRKENSNLDPGELNLLLVELEAFKSETSQFNEGISNKIEIALNYLKSIYTSERITI
As for B3, the binding entry is on record as “binds weakly” in assay [3], “binds weakly” in assay [4], “binds” in assay [5] and “binds” in assay [6].
